Assay results reported in the supplement of paper PMC10849652.
The list shows a part of the results.

Sequences of proteins named here, by UniProt entry; tags and fusion partners are left off. A change or cut given only in a name is not applied to a line headed by its entry.
UniProt Q9P287, whole entry, looked up: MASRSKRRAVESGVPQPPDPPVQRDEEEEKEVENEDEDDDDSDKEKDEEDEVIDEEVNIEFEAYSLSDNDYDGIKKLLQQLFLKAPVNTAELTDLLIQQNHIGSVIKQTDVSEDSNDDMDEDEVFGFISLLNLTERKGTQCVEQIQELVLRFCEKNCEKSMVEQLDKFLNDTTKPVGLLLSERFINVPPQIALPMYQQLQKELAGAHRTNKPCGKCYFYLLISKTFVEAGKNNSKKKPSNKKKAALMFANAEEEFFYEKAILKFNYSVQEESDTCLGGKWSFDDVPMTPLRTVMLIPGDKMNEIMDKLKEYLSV
UniProt P53004: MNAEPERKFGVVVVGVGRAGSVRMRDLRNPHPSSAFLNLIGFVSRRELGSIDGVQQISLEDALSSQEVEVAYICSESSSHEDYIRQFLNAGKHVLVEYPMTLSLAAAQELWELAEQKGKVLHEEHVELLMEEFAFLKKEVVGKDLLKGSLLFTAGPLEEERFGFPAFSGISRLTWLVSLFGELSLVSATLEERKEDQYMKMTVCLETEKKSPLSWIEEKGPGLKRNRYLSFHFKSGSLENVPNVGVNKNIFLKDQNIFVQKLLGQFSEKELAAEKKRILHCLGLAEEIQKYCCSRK
UniProt P56945: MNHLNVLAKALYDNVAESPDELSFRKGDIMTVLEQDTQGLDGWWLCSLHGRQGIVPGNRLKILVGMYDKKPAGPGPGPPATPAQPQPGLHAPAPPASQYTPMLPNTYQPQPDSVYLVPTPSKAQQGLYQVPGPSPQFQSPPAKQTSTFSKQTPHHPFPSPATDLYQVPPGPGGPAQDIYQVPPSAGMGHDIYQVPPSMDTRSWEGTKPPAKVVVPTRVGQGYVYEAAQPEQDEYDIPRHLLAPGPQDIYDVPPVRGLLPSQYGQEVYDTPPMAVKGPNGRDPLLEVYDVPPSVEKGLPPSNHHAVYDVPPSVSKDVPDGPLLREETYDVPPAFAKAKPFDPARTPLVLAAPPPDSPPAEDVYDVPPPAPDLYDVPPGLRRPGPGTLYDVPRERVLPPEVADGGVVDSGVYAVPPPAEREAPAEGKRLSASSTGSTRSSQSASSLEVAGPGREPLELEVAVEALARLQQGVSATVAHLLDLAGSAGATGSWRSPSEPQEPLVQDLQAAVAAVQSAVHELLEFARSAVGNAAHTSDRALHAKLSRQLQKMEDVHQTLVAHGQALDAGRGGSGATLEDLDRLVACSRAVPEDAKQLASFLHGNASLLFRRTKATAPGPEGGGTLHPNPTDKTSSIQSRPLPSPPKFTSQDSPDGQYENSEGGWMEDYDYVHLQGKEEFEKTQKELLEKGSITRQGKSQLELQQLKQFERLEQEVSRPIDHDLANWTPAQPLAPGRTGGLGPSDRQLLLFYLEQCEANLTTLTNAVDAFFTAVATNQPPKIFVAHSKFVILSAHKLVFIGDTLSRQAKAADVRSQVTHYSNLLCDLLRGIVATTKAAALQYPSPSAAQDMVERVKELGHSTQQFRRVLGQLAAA
UniProt Q9NP55: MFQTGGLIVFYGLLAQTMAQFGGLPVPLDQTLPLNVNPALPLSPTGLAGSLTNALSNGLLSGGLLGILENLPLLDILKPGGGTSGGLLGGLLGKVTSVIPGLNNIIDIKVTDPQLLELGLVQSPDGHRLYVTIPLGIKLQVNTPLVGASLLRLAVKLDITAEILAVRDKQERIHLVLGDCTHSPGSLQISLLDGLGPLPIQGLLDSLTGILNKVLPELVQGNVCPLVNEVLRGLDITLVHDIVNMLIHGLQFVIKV
UniProt Q96Q07: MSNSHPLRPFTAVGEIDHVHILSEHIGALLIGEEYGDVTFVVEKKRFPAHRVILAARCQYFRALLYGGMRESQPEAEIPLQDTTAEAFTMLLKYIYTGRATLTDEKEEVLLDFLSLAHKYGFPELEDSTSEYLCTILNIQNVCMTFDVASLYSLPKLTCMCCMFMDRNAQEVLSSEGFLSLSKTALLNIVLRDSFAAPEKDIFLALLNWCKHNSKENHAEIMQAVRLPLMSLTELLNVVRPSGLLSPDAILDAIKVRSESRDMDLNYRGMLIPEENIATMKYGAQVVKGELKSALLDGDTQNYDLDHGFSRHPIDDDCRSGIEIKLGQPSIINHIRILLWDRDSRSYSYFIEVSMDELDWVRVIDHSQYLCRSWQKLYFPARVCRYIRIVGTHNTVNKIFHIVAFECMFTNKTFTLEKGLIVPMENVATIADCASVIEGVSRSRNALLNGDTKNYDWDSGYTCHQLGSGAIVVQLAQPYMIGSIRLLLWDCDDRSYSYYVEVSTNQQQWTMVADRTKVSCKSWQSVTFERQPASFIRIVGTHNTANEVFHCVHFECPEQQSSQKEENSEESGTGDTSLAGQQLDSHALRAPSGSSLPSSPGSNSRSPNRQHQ
UniProt O00499: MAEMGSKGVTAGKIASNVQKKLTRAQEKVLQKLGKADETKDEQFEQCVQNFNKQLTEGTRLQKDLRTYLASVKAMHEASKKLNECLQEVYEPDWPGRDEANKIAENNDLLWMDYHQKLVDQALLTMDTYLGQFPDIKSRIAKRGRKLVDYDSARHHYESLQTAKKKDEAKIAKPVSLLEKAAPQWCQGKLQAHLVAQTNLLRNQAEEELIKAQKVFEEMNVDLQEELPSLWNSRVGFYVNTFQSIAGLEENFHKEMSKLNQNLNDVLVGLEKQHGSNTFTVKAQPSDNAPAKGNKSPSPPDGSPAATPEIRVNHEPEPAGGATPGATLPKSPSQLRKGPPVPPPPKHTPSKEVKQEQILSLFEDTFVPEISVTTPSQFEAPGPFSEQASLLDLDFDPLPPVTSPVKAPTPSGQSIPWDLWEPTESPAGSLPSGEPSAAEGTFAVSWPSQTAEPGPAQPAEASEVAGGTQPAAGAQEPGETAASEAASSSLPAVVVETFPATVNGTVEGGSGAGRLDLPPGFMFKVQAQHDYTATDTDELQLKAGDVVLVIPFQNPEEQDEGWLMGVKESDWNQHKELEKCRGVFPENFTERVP
UniProt Q96GS4: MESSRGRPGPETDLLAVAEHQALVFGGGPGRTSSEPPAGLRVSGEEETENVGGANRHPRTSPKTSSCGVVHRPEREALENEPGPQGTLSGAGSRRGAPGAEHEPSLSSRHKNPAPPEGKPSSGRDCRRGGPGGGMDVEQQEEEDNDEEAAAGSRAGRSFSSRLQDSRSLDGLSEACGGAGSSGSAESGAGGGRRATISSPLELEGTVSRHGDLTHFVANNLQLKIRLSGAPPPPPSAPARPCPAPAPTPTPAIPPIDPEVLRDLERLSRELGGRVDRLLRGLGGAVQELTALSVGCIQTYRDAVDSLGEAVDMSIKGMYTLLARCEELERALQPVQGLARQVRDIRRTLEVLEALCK
UniProt O60513: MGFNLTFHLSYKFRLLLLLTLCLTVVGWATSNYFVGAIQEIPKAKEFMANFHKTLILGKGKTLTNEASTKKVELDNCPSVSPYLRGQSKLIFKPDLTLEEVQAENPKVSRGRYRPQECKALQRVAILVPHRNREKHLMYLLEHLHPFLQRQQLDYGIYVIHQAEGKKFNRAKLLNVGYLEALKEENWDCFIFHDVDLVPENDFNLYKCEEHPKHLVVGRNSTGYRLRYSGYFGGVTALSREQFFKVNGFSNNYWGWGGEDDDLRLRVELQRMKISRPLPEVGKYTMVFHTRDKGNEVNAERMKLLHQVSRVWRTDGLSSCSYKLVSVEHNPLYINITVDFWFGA
UniProt Q8WY22: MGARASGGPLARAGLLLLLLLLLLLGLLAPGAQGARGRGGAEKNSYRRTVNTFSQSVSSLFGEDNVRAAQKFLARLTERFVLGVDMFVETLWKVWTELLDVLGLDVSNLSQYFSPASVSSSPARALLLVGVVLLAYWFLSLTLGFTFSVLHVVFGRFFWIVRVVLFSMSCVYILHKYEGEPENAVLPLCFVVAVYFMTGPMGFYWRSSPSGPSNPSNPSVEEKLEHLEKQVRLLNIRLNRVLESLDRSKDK
UniProt P54132: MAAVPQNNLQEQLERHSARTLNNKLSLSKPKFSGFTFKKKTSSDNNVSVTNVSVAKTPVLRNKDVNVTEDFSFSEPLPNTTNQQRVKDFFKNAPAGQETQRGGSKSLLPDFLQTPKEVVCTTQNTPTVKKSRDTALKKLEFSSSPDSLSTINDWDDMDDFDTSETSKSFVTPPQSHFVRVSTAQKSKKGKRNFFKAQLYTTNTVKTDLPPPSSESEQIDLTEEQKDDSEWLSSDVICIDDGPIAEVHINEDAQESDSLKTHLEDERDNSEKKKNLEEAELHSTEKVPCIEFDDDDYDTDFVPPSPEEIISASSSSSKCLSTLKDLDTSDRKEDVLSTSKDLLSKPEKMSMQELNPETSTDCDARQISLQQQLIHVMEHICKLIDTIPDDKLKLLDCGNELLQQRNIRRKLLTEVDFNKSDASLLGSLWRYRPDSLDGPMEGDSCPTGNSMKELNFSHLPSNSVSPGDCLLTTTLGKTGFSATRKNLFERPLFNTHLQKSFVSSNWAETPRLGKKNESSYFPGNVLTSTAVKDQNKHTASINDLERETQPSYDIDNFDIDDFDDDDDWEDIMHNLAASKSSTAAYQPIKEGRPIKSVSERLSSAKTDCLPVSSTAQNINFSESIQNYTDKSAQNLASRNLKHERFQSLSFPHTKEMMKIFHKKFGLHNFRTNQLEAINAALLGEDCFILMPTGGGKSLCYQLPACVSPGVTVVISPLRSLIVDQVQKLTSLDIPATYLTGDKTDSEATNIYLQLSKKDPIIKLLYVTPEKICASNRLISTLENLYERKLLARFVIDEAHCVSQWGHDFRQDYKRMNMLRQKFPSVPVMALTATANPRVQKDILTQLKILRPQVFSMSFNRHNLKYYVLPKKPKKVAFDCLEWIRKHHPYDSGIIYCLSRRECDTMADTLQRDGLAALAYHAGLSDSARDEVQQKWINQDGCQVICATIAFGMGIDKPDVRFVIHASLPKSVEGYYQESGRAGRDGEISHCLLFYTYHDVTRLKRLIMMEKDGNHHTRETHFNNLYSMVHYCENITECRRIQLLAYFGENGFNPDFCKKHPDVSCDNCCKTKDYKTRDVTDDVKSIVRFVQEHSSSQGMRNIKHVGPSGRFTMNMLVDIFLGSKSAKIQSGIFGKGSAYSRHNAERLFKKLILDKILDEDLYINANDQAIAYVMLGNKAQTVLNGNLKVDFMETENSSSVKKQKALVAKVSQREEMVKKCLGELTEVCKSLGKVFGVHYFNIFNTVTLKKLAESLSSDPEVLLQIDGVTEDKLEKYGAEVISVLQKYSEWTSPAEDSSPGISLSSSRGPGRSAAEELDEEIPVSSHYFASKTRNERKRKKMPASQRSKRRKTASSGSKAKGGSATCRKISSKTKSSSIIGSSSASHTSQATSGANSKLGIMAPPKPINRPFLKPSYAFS

How the values were obtained:
Assay in all cases: log2 fold change, soluble protein after heating vs DMSO (PISA); higher = thermal stabilisation; K562 lysate, 10 uM; active = over 0.2 and 3.5 SD of the protein, either way, in both replicates (recomputed)
[1] = compound: NCC(=O)Nc1ccc(-n2nc(C(F)(F)F)cc2-c2ccc3c(ccc4ccccc43)c2)cc1
How it was run: (§1)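 Log-two fold change in thermal stability relative to solvent controls is reported from duplicates. For each sample, crude K562 extract from dounce-homogenised pellets in PBS pH 7.4 with 1 mM MgCl2, at 1 mg/mL protein, was treated with 10 μM compound for 30 min. Aliquots heated for 3 min across 48°C-58°C were pooled, brought to 0.5% NP-40 at 4°C and cleared at 21,000xg for 90 min. The supernatant was quantified by TMTpro 16plex LC-MS/MS with channel sums equalised.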

vorinostat = compound: O=C(CCCCCCC(=O)Nc1ccccc1)NO [vorinostat]
How it was run: as §1

silmitasertib = compound: O=C(O)c1ccc2c(c1)nc(Nc1cccc(Cl)c1)c1ccncc12 [silmitasertib]
How it was run: as §1

[2] = compound: O=C1NC(=O)C(c2cnc3ccccn23)=C1c1cn2c3c(cc(F)cc13)CN(C(=O)N1CCCCC1)CC2
How it was run: as §1

entospletinib = compound: c1cn2cc(-c3ccc4cn[nH]c4c3)nc(Nc3ccc(N4CCOCC4)cc3)c2n1 [entospletinib]
How it was run: as §1

Measured: log2 fold change

BCCIP (UniProt Q9P287)
inactive: [1] -0.04 | vorinostat -0.185 | silmitasertib -0.006 | [2] -0.065 | entospletinib 0.003

B4GALT7 (UniProt Q9UBV7)
inactive: [1] -0.21 | vorinostat 0.35 | silmitasertib -0.166 | [2] -0.075 | entospletinib 0.04

BRAF, A0A2R8Y8E0
inactive: [1] 0.017 | entospletinib -0.082

BLVRA (UniProt P53004)
inactive: [1] -0.022 | vorinostat -0.049 | silmitasertib 0.014 | [2] -0.023 | entospletinib 0.023

BCAR1 isoform 6 (UniProt P56945)
inactive: [1] 0.056 | vorinostat -0.032 | silmitasertib 0.002 | [2] -0.004 | entospletinib -0.083

BPIFA1 (UniProt Q9NP55)
inactive: [1] 0.067 | vorinostat 0.341 | silmitasertib -0.091 | entospletinib 0.099

BTBD9 (UniProt Q96Q07)
inactive: vorinostat -0.183 | silmitasertib 0.293

BIN1 (UniProt O00499)
inactive: [1] 0 | vorinostat 0.441 | silmitasertib 0.121 | entospletinib 0.025

Reprinted from the listing (2 entries):
BPIFA1 (UniProt Q9NP55)
inactive: [1] 0.067 | vorinostat 0.341 | silmitasertib -0.091 | entospletinib 0.099

BTBD9 (UniProt Q96Q07)
inactive: vorinostat -0.183 | silmitasertib 0.293

(cont.)

BORCS6 (UniProt Q96GS4)
inactive: [1] -0.061 | vorinostat 0.049 | silmitasertib 0.028 | [2] -0.015 | entospletinib 0.005

B4GALT4 (UniProt O60513)
inactive: vorinostat 0.255 | silmitasertib -0.004

BRI3BP (UniProt Q8WY22)
inactive: [1] -0.029 | vorinostat 0.126 | silmitasertib -0.035 | entospletinib -0.008

BLM (UniProt P54132)
inactive: [1] 0.03 | vorinostat -0.056 | silmitasertib 0.044 | [2] 0.003 | entospletinib -0.002
